This is an account of results in PMC8500839, “Structures of outer-arm dynein array on microtubule doublet reveal a motor coordination mechanism” (Nature Structural & Molecular Biology, 2021).

Holding throughout (test): cryo-EM structure; freshly purified native OAD (not cross-linked) reconstituted on MTD in 20 mM HEPES pH 7.4, 100 mM KCl, 5 mM MgSO4, 1 mM DTT, on ice 45 min; apo state, no docking complex; two classes MTBS-1 and MTBS-2; MTD lattice refined from the same data; both purified
The target in assay [1] is T1, outer-arm dynein intermediate chain IC2 (T. thermophila, UniProt I7M008 1-667).
T1 construct: outer-arm dynein intermediate chain 2, T. thermophila, native subunit; source: purified from T. thermophila cilia as a subunit of native OAD (high salt extraction, sucrose gradient, ion exchange)
T1 sequence (looked up): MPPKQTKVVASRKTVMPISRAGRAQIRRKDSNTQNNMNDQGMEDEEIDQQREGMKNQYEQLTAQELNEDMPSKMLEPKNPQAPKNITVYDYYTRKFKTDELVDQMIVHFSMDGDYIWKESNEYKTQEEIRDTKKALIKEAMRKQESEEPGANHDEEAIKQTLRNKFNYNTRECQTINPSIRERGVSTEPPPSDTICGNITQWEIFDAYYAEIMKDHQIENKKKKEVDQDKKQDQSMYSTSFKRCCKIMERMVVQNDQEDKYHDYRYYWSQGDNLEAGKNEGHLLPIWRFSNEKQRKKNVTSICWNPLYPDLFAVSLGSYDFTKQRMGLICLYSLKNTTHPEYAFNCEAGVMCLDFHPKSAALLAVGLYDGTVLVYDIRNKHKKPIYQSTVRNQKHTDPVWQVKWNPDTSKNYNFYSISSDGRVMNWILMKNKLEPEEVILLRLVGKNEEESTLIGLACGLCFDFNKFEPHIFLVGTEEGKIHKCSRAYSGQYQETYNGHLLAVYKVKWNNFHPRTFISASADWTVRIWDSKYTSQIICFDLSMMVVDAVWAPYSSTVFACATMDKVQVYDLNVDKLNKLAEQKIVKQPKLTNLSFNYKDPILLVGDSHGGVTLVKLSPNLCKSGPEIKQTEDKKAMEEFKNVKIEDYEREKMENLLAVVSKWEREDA

For assay [2], the target named is T2, outer-arm dynein intermediate chain IC3 (T. thermophila, UniProt Q23FU1 1-670).
T2 construct: outer-arm dynein intermediate chain 3, T. thermophila, native subunit; source: purified from T. thermophila cilia as a subunit of native OAD (high salt extraction, sucrose gradient, ion exchange)
T2 sequence (looked up): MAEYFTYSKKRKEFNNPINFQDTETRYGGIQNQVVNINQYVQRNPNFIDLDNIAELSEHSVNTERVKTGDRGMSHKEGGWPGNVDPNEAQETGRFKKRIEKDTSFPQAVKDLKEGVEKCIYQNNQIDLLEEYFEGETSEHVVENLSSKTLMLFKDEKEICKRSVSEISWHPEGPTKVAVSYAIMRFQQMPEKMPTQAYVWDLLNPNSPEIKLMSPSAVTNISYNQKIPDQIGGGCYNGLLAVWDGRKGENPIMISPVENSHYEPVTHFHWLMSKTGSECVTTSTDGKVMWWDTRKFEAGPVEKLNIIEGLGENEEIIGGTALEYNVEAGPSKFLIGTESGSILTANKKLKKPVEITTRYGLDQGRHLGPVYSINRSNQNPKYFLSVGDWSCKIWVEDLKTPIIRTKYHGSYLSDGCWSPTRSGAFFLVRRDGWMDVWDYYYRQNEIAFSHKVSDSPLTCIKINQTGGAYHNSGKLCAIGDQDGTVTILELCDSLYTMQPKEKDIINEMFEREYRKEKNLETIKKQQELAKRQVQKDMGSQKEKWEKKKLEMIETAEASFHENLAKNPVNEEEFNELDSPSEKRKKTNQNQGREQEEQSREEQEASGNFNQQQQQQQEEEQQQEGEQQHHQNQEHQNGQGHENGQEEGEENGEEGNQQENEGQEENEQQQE

In assay [3] the target is LC7-b (LC7B) (T. thermophila).

These are yes or no findings as the source states them, for the method shown. A result given as binding can be weak or reduced; the word gives no strength.

In the case of LC7-b (LC7B) (T. thermophila), the binding result in assay [1] and in assay [2] was “binds” in each case.

B1: LC7-a (unnamed LC7A homolog, TTHERM_00348650) (protein, UniProt Q22MV2 1-159)
chain: MIYKTSKEIQKSDQRIIQQRVENSIINNQIYQKSLKRKTSKRKVRHQANKKNFQKEMSEVEDTLNRIKTHKTVLGYLIVNSEGGVVRGAFKDEEESKNIANSIPLLTKKARSVVRDLDPTNDLVFLRIQTKLNEIMVAPDDEFSLIVIQTKGEKRDEND
On to B1, for which the binding entry in assay [3] was “binds”.
